# These are yes or no findings as the source states them, for the method shown. In cells and extracts the contact can be indirect. Here binding means that the protein was enriched with, or labelled near, the bait; the list need not be complete.
# Protein sequences, listed by entry. Tags and fused reporters are not part of them.
# UniProt Q9QZL0: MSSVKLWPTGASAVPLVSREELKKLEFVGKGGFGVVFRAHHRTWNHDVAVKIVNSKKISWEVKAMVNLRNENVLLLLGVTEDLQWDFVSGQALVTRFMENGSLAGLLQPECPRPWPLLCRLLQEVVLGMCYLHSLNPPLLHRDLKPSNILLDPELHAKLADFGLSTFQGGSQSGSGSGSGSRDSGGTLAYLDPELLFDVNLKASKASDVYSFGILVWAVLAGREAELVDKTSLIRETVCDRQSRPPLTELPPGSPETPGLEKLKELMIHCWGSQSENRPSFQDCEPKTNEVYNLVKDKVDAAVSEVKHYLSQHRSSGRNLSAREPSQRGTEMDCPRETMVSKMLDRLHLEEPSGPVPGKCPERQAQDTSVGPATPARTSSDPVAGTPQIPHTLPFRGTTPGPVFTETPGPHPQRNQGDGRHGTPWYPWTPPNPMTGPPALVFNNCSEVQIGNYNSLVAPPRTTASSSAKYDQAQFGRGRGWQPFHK
# Target: RIP3 (bait of the immunoprecipitation analysed by mass spectrometry) (UniProt Q9QZL0)
# Assay: affinity purification with mass spectrometry; immunoprecipitates of RIP3 analysed by mass spectrometry; cells and antibody not stated
binder,measurement,value
"RGS19 (found by mass spectrometry in the immunoprecipitates of RIP3) (protein, UniProt Q9CX84 1-216) MPTPHEAEKQHTGPEEADRPPSMSSHDAAPSGPPSRNPCCLCWCCCCSCSWNQERQRAWQVSRESKLQPLPSCEVCTPPSPKEVQSWAQSFDKLMHSPTGRSVFRAFLRTEYSEENMLFWLACEELKAEANQHVVDEKARLIYEDYVSILSPKEVSLDSRVREGINRKMQEPSPHTFDDAQLQIYTLMHRDSYPRFLTSPTYRSLLLQGAPQSSEA",binding,binds

# From article PMC3994006
